Measured values reported in PMC10163288.
The list shows a part of the results.

B1: il2ra_site1_2b5i_sap_11_mot_HHH_b2_01648_000000060_0001_42_56_H_._HHH_b2_08125_0001_0000200014_0000001_0_0001_af2pred_dldesign_0_af2pred (protein)
chain: SSSSDEAWEEIDRLFSEAERLRRAGKREEARELLEEALAVAEANNDAKAVAELRRLLELLSSSSS
B2: il2ra_site2_2erj_sap_22_mot_HHH_b2_07720_000000231_0001_21_37_H_._HHH_b1_02978_0001_0000500004_0000001_0_0001 (protein)
chain: SSSSSSHEEMAELIEELFEEAREAGNEAALRLVLAFLRLSIEDTGDPRLEELLEELERLLSSSSS
B3: il2ra_site1_2b5i_normal_mot_HHH_b1_02271_000000068_0001_1_16_H_._HHH_eva_0455_0001_0000100005_0000001_0_af2pred_dldesign_0_af2pred (protein)
chain: SSSSSSSDRRKILEEADKAFKAGDVEKLEELLKKAKAAGDEKTARAIERAIEVAREESSSSSSSS
B4: il2ra_site2_3nfp_normal_mot_HHH_b2_07840_000000026_0001_18_34_H_._HHH_b1_00954_0001_0000200021_0000001_0 (protein)
chain: SSSSDLEERLRELLEELEELVKEGDEERFREVAREVIQLVYENNDHEAFAKLADLLYLIESSSSS
B5: il2ra_site1_1z92_sap_16_mot_HHH_b1_07660_af2_000000114_0001_40_57_H_._HHH_b1_07492_0001_0000100006_0000001_0_0001_af2pred_0001_af2pred_1 (protein)
chain: NDHTRELIKEAIEKNDEELLKEFLELAERDSGDPRLAKQYLRILIKKLLGDPEKAKEIVRRIEER
B6: il2ra_site2_2erj_sap_24_mot_HHH_b2_02257_000000217_0001_21_37_H_._HHH_b1_05454_0001_0001000012_0000001_0_0001 (protein)
chain: SSSSSEEEVEELIRKAEELLKEGDEAEALHVLAEAALLALELNDPELFRLISELFEEVYRSSSSS
B7: il2ra_site1_1z92_sap_10_mot_HHH_b2_05172_af2_000000284_0001_1_18_H_._HHH_b1_03374_0002_0000400040_0000001_0_0001 (protein)
chain: DAREQMERDVELVAEHANVPSFSVEVENGKIEVTLEGTDWAVETAARILERLAKRAGVDVEVEVR
B8: il2ra_site1_1z92_normal_mot_HHH_b2_06308_af2_000000104_0001_1_20_H_._1120a227123fe120892103896c8fe6e4_0001_1_0001_0000100007_0000001_0_af2pred_0001_af2pred_1 (protein)
chain: DAHEVAERAAELVKEGNPEEAERLLEELVRKTGDPALKFLLEQVEKLLERGNLESVHKLLHAAAR
B9: il2ra_site2_2erj_normal_mot_64bd02d26d05ce9f1a62b616cea0b888_0001_af2_000000037_0001_36_50_H_._HHH_b1_04625_0001_0000100006_0000001_0 (protein)
chain: SSSSDEELRYAFEAAARLMHLISNGNPEEAQELVEEARRELERLGNPELAEALEELFEFALSSSS
B10: il2ra_site2_3nfp_normal_mot_HHH_b2_03978_000000149_0001_1_20_H_._HHH_b2_07914_0001_0000100004_0000001_0 (protein)
chain: SSSSDEEELEERVEELLEEAKKIEDPEEVAELLLEASALAYRYNDHELFAKIVEVFHRLNSSSSS
B11: il2ra_site2_2erj_normal_mot_6d5f7cbc25fed124e3eb7f952334b9cf_0001_af2_000000048_0001_1_13_H_._HHH_b1_04677_0001_0000500020_0000001_0 (protein)
chain: SSSSSDEEIRELFEEVLELFKRAESREEARELLHELLREAEELGDEALVRVIRYLLKSISSSSSS
B12: il2ra_site1_1z92_sap_26_mot_HHH_b2_02540_000000162_0001_1_16_H_._HHH_b2_07770_0001_0000300023_0000001_0_0001_af2pred_0001_af2pred_1 (protein)
chain: SEEEEIIQLLAEVAGLPPEAVERLVEQVRRLANVPPKDALRLTAKAALQITGDPRVEEALELAEK
B13: il2ra_site1_2b5i_sap_17_mot_HHH_b2_04463_000000268_0001_43_57_H_._HHH_b2_05280_af2_0001_0000100008_0000001_1_0001 (protein)
chain: SSSSSREETRELVRIVWRIRWEFGLSNEEAHELVELAAELLDEGVSVEEIKKLLEELAEELSSSS
B14: il2ra_site1_1z92_normal_mot_8b466c8ab6a4ea9d290724e70e8647ea_0001_000000211_0001_54_65_H_._f5bcb56c74c9f00413c49eba35dae90c_0001_af2_0001_0000200029_0000001_0_a … (protein)
chain: DPLAELKKRLEAAKSPALKVLETLEEAAKKGDKAAKYALANVERRLARGDPEAVERLLRKLGTRL
B15: il2ra_site2_2erj_sap_26_mot_HHH_b2_08311_000000155_0001_42_56_H_._HHH_b1_05305_af2_0001_0000500055_0000001_0_0001 (protein)
chain: SSSSDEELRRLFELASRLMEAIHRGDEELIEELQEEIRRLIEELNSDNAREVLEWLERHGSSSSS
B16: il2ra_site1_2b5i_normal_mot_HHH_b2_04910_000000118_0001_1_19_H_._HHH_b1_01633_0001_0000400027_0000001_0_af2pred_0001_af2pred (protein)
chain: SSSSDSREEVRELFEEANRLFKEGNPEEAEKILEEAEKLAKENNSPSLLKLIQAALREIRSSSSS
B17: il2ra_site1_3nfp_sap_15_mot_44d7d87cef3b3f1636c8b2572508b1bf_0001_1_af2_000000239_0001_37_63_H_._5336601281b50f8c34db4f7065c370c5_0001_0001_0000100002_0000001_0 … (protein)
chain: SSSSSDQEMAKRIDELLKKLAKAKSEEEREELEEELQRLAEEANSPLARWLARDIIEQVRSSSSS
B18: il2ra_site1_2b5i_normal_mot_HHH_b2_04910_000000118_0001_1_19_H_._HHH_b1_04153_0001_0000100001_0000001_0_af2pred_0001_af2pred_1 (protein)
chain: SSSSSNAAERAFELLREANELDRNGNPEEAQRVLEEALELAEEGNNKSLVRSIEAALRLVSSSSS
B19: il2ra_site2_2erj_normal_mot_HHH_b1_02757_000000121_0001_41_57_H_._HHH_b1_02256_0001_0000700046_0000001_0_af2pred_0001_af2pred (protein)
chain: SSSSSSSVEEEVKELLEQAKHIPDIREALKVLEEADRLALENDNEELLELITRVLRELSSSSSSS

The binders below were run against il2ra, P01589 (assay: yeast display titration).

Apparent Kd, inactive:
B1 no binding seen
B2 no binding seen
B3 no binding seen
B4 no binding seen
B5 no binding seen
B6 no binding seen
B7 no binding seen
B8 no binding seen
B9 no binding seen
B10 no binding seen
B11 no binding seen
B12 no binding seen
B13 no binding seen
B14 no binding seen
B15 no binding seen
B16 no binding seen
B17 no binding seen
B18 no binding seen
B19 no binding seen

2 consecutive entries from above, quoted:
Apparent Kd, inactive:
B2 no binding seen
B3 no binding seen
